Laboratory results taken from publication PMC5316984.
Results are given in words; binding and its absence hold for the method and conditions named. Binding seen in cells or lysates may run through a third protein. Some results given as binding are weak or reduced against the parent protein; the word gives no strength. Blank lines part the entries; values can stand above or below the substance they belong to.

Amino acid sequences for entries named in this document (tags omitted). A change or cut given only in a name is not applied to a line headed by its entry.
UniProt Q15208: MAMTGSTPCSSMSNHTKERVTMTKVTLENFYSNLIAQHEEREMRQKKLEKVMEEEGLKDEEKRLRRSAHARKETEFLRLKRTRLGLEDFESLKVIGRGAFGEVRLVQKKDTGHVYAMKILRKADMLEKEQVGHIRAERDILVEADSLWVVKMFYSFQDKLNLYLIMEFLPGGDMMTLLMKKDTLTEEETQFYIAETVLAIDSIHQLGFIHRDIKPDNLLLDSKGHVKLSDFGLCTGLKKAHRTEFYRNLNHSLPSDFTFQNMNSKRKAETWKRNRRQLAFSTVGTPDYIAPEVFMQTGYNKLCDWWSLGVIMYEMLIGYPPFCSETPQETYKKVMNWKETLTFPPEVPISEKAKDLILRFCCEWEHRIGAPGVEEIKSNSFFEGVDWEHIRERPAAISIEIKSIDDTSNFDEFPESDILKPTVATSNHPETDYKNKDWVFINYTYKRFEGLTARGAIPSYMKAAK
UniProt O14508: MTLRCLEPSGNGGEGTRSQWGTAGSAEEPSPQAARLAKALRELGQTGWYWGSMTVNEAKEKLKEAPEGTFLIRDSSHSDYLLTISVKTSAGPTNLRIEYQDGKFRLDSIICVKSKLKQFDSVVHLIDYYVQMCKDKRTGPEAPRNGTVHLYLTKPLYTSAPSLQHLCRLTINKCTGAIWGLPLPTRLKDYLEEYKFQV

What was measured:
[1] = target: Myc-tagged NDR1 (UniProt Q15208); experiment: co-IP; FLAG-SOCS2-ΔSB and Myc-NDR1 co-expressed; lysate precipitated with anti-Myc (9E10) antibody, immunoblot; IP buffer 50 mM HEPES pH 7.2, 250 mM NaCl, 10% glycerol, 1% Nonidet P-40, 1.0 mM EDTA
[2] = target: SOCS2 (endogenous) (human (endogenous in HEK293T) by the legend; mouse (endogenous in MEFs) by the text) (UniProt O14508); experiment: co-IP; endogenous proteins; lysate (2 mg) precipitated with anti-SOCS2 antibody or anti-IgG, immunoblot; IP buffer 50 mM HEPES pH 7.2, 250 mM NaCl, 10% glycerol, 1% Nonidet P-40, 1.0 mM EDTA
[3] = target: FLAG-SOCS2-ΔSB (SOCS2 SOCS-box deletion mutant, amino acids 1-145) (human) (UniProt O14508); experiment: co-IP; FLAG-SOCS2-ΔSB and Myc-NDR1 co-expressed; lysate precipitated with anti-FLAG M2 antibody, immunoblot; IP buffer 50 mM HEPES pH 7.2, 250 mM NaCl, 10% glycerol, 1% Nonidet P-40, 1.0 mM EDTA

- binding [1]: binds
Substance: FLAG-SOCS2-ΔSB (SOCS2 SOCS-box deletion mutant, amino acids 1-145) (from UniProt O14508 1-145) (domain or fragment)

- binding [2]: binds
Substance: NDR1 (endogenous) (from UniProt Q15208 1-465) (enzyme)

- binding [3]: binds
Substance: Myc-tagged NDR1 (from UniProt Q15208 1-465) (enzyme)
